± gives the standard deviation of the averaged measurements. The list shows a part of the results, in another mix than the full data.
Compound: Nc1ncnc2c1ncn2[C@@H]1O[C@H](COP(=O)(O)OP(=O)(O)NP(=O)(O)O)[C@@H](O)[C@H]1O [adenylyl imidodiphosphate]
Assay: NP40-soluble protein abundance relative to vehicle (solubility fold change) (ratio); higher = more soluble protein in presence of AMP-PNP
In short: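 Each value is a fold change relative to the detergent-processed vehicle, calculated per replicate from vsn-normalised intensities. Jurkat crude lysate received eight concentrations (0.1 to 10 mM) for 10 min at room temperature and 3 min at 37 °C, then was solubilised in 0.8% NP40 with benzonase (60 min, 4 °C). The ultracentrifuged supernatant was TMT-labelled and run by LC-MS/MS in three independent experiments.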

A0A096LP10|Q9NP73-2|Q9NP73 (UniProt Q9NP73)
NP40-soluble protein abundance (concentration: 1mM): 1.01 ± 0.02 | NP40-soluble protein abundance (concentration: 2mM): 1.023 ± 0.0072 | NP40-soluble protein abundance (concentration: 4mM): 0.997 ± 0.042 | NP40-soluble protein abundance (concentration: 6mM): 0.963 ± 0.029 | NP40-soluble protein abundance (concentration: 8mM): 0.985 ± 0.034 | NP40-soluble protein abundance (concentration: 10mM): 0.939 ± 0.054

A0A0A0MRS4|Q9NVV0 (UniProt Q9NVV0)
NP40-soluble protein abundance (concentration: 1mM): 1.06 ± 0.031 | NP40-soluble protein abundance (concentration: 2mM): 1.08 ± 0.056 | NP40-soluble protein abundance (concentration: 4mM): 1.07 ± 0.05 | NP40-soluble protein abundance (concentration: 6mM): 1.05 ± 0.025 | NP40-soluble protein abundance (concentration: 8mM): 1.046 ± 0.0015 | NP40-soluble protein abundance (concentration: 10mM): 1.08 ± 0.061

A2A2V1 and related entries (UniProt P04156+A2A2V1)
NP40-soluble protein abundance (concentration: 1mM): 1.01 ± 0.029 | NP40-soluble protein abundance (concentration: 2mM): 1.08 ± 0.066 | NP40-soluble protein abundance (concentration: 4mM): 1.02 ± 0.02 | NP40-soluble protein abundance (concentration: 6mM): 1.044 ± 0.01 | NP40-soluble protein abundance (concentration: 8mM): 1.03 ± 0.018 | NP40-soluble protein abundance (concentration: 10mM): 1.01 ± 0.016

A0A087X1A8|F5H211 and related entries (UniProt P54252)
NP40-soluble protein abundance (concentration: 1mM): 1 ± 0.035 | NP40-soluble protein abundance (concentration: 2mM): 1.03 ± 0.083 | NP40-soluble protein abundance (concentration: 4mM): 0.966 ± 0.054 | NP40-soluble protein abundance (concentration: 6mM): 0.949 ± 0.038 | NP40-soluble protein abundance (concentration: 8mM): 0.918 ± 0.053 | NP40-soluble protein abundance (concentration: 10mM): 0.937 ± 0.074

A0A087X020|Q9Y3A5 (UniProt Q9Y3A5)
NP40-soluble protein abundance (concentration: 1mM): 1 ± 0.03 | NP40-soluble protein abundance (concentration: 2mM): 0.964 ± 0.043 | NP40-soluble protein abundance (concentration: 4mM): 1.01 ± 0.028 | NP40-soluble protein abundance (concentration: 6mM): 0.983 ± 0.012 | NP40-soluble protein abundance (concentration: 8mM): 1.03 ± 0.018 | NP40-soluble protein abundance (concentration: 10mM): 1.02 ± 0.026

Reference: the supplement of paper PMC6411743
